Construct, isoform or probe ends are uncertain for at least one entry.
Biological target: AGE-2 (glyceraldehyde-derived advanced glycation end product of human serum albumin) HSA glycated with D-glyceraldehyde at 37 C for 7 days, dialysed against PBS (Homo sapiens) (UniProt P02768)
Experiment: SELEX
Settings: room temperature, counter-selected against HSA beads, single-stranded DNA

Sequence	selection result (purified native protein)	also measured
GCCAAGCCAGGGCGGGGTCATGTGGTTGTTTGACTTGATTGTGGCCGCTCAGTGCAGCCGA [AGE-2 aptamer 35]	selected	–
GCCAATCGCCGCACCCACCCAACCCCTGCCACGGCTAGCAACTGCATCATCGCAACC [AGE-2 aptamer 23]	selected	–
GCCATCCGTCCCCGGAACACTCACACACCCCATCCGCAACCCCCCCCACTCCACCGCC [AGE-2 aptamer 16]	selected	–
GCGCACATATTACTTCCTCAATCAACGCCCACCGAACACTCCCGTCACACTACAACC [AGE-2 aptamer 17]	selected	–
GCGGGACGCGCGGGAGGATCCGGGGGTTGTGCTTGGGTGGCCGGATGTCCGGTTATTGTTGT [AGE-2 aptamer 38]	selected	–
GCGTGACACCTATCTAACCAACAGCCACCCATCCAACACCCGCTAACCCCACTCTCG [AGE-2 aptamer 22]	selected	–
GGACAAGCAGAAGCGGTGAGTCGGTTTGTGTGGCATGCGGCGGTGGTTGCCTGTGTCCATCGA [AGE-2 aptamer 27]	selected	–
GGACAAGCAGAAGCGGTGAGTCGGTTTGTGTGGCATGCGGCGGTGGTTGCCTGTGTCCATCGA [AGE-2 aptamer 36]	–	selection result (same printed sequence as SEQ 27, purified native protein): selected
GGACAAGCATGGTGAGGCTAGGTTCGGCGGGTGCGGATGGCATTCGGTGGGATCTTTGGCGGGT [AGE-2 aptamer 26]	selected	–
GGACAAGCTCTTGTGGCGGTTGGCCCCTTAGCGGTTCGGGAGTTTCACAGTCACGGTCGGGGTG [AGE-2 aptamer 29]	selected	–
GGACAAGCTCTTGTGGCGGTTGGCCCCTTAGCGGTTCGGGAGTTTCACAGTCACGGTCGGGGTG [AGE-2 aptamer 37]	–	selection result (same printed sequence as SEQ 29, purified native protein): selected
GGACCGTTTCACTCATTACCCCCCATCACACGCCACAGATACTACCCCATACACCCA [AGE-2 aptamer 18]	selected	–
GGCAAGCTGTCCCTAGGCGGTGGGTAGCAAGTTCGTGGGCCGCGCAGTGTCTTGGCAGTTCC [AGE-2 aptamer 39]	selected	–
GGCCAAGCAGGTAAGTGCGGGGTCCGGTTGGTTGTTCGGGTCTCGCGTGCAATATCACGTGT [AGE-2 aptamer 25]	selected	–
GGCCAAGCAGGTAAGTGCGGGGTCCGGTTGGTTGTTCGGGTCTCGCGTGCAATATCACGTGT [AGE-2 aptamer 33]	–	selection result (same printed sequence as SEQ 25, purified native protein): selected
GGCCAAGCAGGTAAGTGCGGGGTCCGGTTGGTTGTTCGGGTCTCGCGTGCAATATCACGTGT [AGE-2 aptamer 40]	–	selection result (listing 62, purified native protein): selected
GGCCAAGCATCGATGCCCGTGTTGGCCTGTGCGGGGGATTGTAGTGTGCCTCGGGTGTGCATGAG [AGE-2 aptamer 28]	selected	–
GGCCAAGCATCGATGCCCGTGTTGGCCTGTGCGGGGGATTGTAGTGTGCCTCGGGTGTGCATGAG [AGE-2 aptamer 32]	selected	–
GGGCAAGCTGGTATAAGTATGCAATCTGCGGTGATATCCCATCAGTGTGTTTGGCTGTGGAT [AGE-2 aptamer 34]	selected	–
GGGCAAGCTGGTATAAGTATGCAATCTGCGGTGATATCCCATCAGTGTGTTTGGCTGTGGAT [AGE-2 aptamer 41]	–	selection result (same printed sequence as SEQ 34, purified native protein): selected
GGGCAAGCTGGTATAAGTATGCAATCTGCGGTGATATCCCATCAGTGTGTTTGGCTGTGTCTGGCT [AGE-2 aptamer 30]	selected	–
GGTGCGTACCCACCCCCCAAACACCCAACTCCCACCACCTCGCCAACCCGAAAACAC [AGE-2 aptamer 21]	selected	–
GTACATACACCGACCACCATCACAAGCACCAACTCACCAAACATGAACTACACCAAC [AGE-2 aptamer 19]	–	selection result (listing gtacata, purified native protein): selected
GTACCTGCCCTCCCCGCGTTAAAATCACACTACAACACACCAATCGTAGAAAACTAA [AGE-2 aptamer 24]	selected	–
GTCCCCATTTCCAGCCCCTTCTCATTCACCACTCACACAACCAATACAACCAGCCCA [AGE-2 aptamer 20]	selected	–
GTGCAAGCTGATGGTTCGGTAGTTTCGGATGTTTGTGTCGTTGCTCGCGTTGTGAATGTGCT [AGE-2 aptamer 31]	selected	–
